Data source: PubChem BioAssay AID1224826 (NIAID, 2016)

Assay: 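Regulators of Tlr4 signalling leading to Tnf-alpha expression in macrophages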 (primary screen)
System: RAW264.7 G9 macrophages from mouse bearing reporters for p65 (GFP) and the Tnf promoter (mCherry)
Reagent: siRNA pool against mouse genes, 100 nM
Timing: 16 h of LPS stimulation, after 2 days of siRNA transfection
Treatment: bacterial lipopolysaccharide (Salmonella minnesota R595), 10 ng/ml
Read-out: 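Nuclear mCherry signal of the Tnf promoter reporter measured by imaging after background removal, scaled to each plate median and turned into robust z-scores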
Reading the numbers: Tnf reporter robust z-score: higher = stronger Tnf promoter reporter signal after LPS
Rule for the call: 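Called active when robust z-score is at most -1.3, matching the median of the Tlr4 knock-down control, or over 3; control wells and wells with under 50 cells never active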
Calls: active = Tnf reporter clearly lowered or raised; inactive = no clear change in Tnf reporter
The whole screen tested about 17,000 reagents; this is an unselected part. Over the whole deposit, about 1,110 (6.6%) got an active call. 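Active means lowered or raised reporter signal; replicate intensities are raw and not normalised per plate.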 Further read-outs or replicates are left out here.

no.	gene	Tnf reporter robust z-score	fewer than 50 cells in well	call
1	P2ry6	-0.26	enough cells in well	inactive
2	Sel1l3		fewer than 50 cells per well; well left out of calls	inactive
3	Rag2	0.3	enough cells in well	inactive
4	Pgap4	0.51	enough cells in well	inactive
5	Cstf3	0.88	enough cells in well	inactive
6	Vmn1r72	-0.04	enough cells in well	inactive
7	Hspbp1	-0.35	enough cells in well	inactive
8	Gdf6	0.7	enough cells in well	inactive
9	Pole4	-0.79	enough cells in well	inactive
10	Nrn1l	-1.61	enough cells in well	active
11	Akr1cl	-0.29	enough cells in well	inactive
12	Dok3	-0.24	enough cells in well	inactive
13	Tmem179b		fewer than 50 cells per well; well left out of calls	inactive
14	Tmem171	-1.29	enough cells in well	inactive
15	Clcnka	-0.87	enough cells in well	inactive
16	Hmbs	-0.92	enough cells in well	inactive
17	Or10g9b		fewer than 50 cells per well; well left out of calls	inactive
18	Aimp2	1.5	enough cells in well	inactive
19	Btbd9	-1.34	enough cells in well	active
20	Eci2	-0.31	enough cells in well	inactive
21	Copz1		fewer than 50 cells per well; well left out of calls	inactive
22	Tmprss2		fewer than 50 cells per well; well left out of calls	inactive
23	Cacnb4	-1.47	enough cells in well	active
24	Wfs1	0.09	enough cells in well	inactive
25	Drgx	0.08	enough cells in well	inactive
26	Tpp2	-0.72	enough cells in well	inactive
27	Rcbtb2	0.23	enough cells in well	inactive
28	Tmem17	-0.5	enough cells in well	inactive
29	Xrcc1	0	enough cells in well	inactive
30	Prp2	1.5	enough cells in well	inactive
31	Zfp451	-0.94	enough cells in well	inactive
32	Snai2	0.76	enough cells in well	inactive
33	Ptgs1	0.63	enough cells in well	inactive

The list goes on, starting with the last 7 of the part before.
no.	gene	Tnf reporter robust z-score	fewer than 50 cells in well	call
27	Rcbtb2	0.23	enough cells in well	inactive
28	Tmem17	-0.5	enough cells in well	inactive
29	Xrcc1	0	enough cells in well	inactive
30	Prp2	1.5	enough cells in well	inactive
31	Zfp451	-0.94	enough cells in well	inactive
32	Snai2	0.76	enough cells in well	inactive
33	Ptgs1	0.63	enough cells in well	inactive
34	Galns	-0.06	enough cells in well	inactive
35	Ddo	2.22	enough cells in well	inactive
36	Reps2	-0.94	enough cells in well	inactive
37	Ybey	3.28	enough cells in well	active
38	Rps6kb1	-1.7	enough cells in well	active
39	1700018B24Rik	-0.99	enough cells in well	inactive
40	Ghrh	-0.19	enough cells in well	inactive
41	Prcc	0.26	enough cells in well	inactive
42	Igsf9	0.1	enough cells in well	inactive
43	Gckr	0.12	enough cells in well	inactive
44	Brca2	-1.08	enough cells in well	inactive
45	Klk14	-1.3	enough cells in well	active
46	Cd1d1	0.55	enough cells in well	inactive
47	Havcr2	0.56	enough cells in well	inactive
48	Kdg4	0.93	enough cells in well	inactive
49	Elapor2	1.6	enough cells in well	inactive
50	Hnrnpc	1.47	enough cells in well	inactive
51	Ntsr1	1.71	enough cells in well	inactive
52	Prkag2	-1.05	enough cells in well	inactive
53	Itpa	-1.12	enough cells in well	inactive
54	Prss28	-0.85	enough cells in well	inactive
55	Glipr1l2		fewer than 50 cells per well; well left out of calls	inactive
56	Plcb1	0.59	enough cells in well	inactive
57	Tmem126a		fewer than 50 cells per well; well left out of calls	inactive
58	Trps1	-0.05	enough cells in well	inactive
